In publication PMC7819943, “Rice protein-binding microarrays: a tool to detect cis-acting elements near promoter regions in rice” one finds binding signal data, which are given here for 42 sequences.

Sequences of proteins named here, by UniProt entry; tags and fusion partners are left off.
UniProt Q0JBA9, entry or part of it: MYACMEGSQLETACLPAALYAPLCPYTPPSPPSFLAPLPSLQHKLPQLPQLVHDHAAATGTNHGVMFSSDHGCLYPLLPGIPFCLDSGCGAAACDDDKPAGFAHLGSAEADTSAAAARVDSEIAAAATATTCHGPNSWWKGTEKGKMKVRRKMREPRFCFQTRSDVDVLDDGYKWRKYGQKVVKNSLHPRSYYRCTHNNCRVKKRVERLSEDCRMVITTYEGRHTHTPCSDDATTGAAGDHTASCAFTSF

Some of the results follow.

This test deals with OsWRKY34 (Oryza sativa, UniProt Q0JBA9 1-250). Nature of the test: protein-binding microarray (RPBM); PBS, 2% BSA, 51.3 ng/ul salmon testes DNA, 50 uM zinc acetate, 200 nM TF, 25 C, 1 h; high values mean tight binding. The following applies: protein: recombinant; tags: N-terminal polyhistidine and DsRed monomer fusion (pET32a); label: CyDye5-dUTP incorporated in the synthesized complementary strand; 3' TTTTT single-stranded linker to array surface; dsDNA, one strand shown. Put shortly:
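Using Ni–NTA, transcription factors fused N-terminally to polyhistidine and DsRed were purified after expression in E. coli BL21-CodonPlus. These were incubated at 200 nM with a blocked, double-stranded custom Agilent array for 1 h at 25 °C in a buffer containing 50 µM zinc acetate, and the array was washed. The binding signal is per-feature fluorescence intensity (arbitrary units) on an Axon 4000B scanner.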
Consider “TGCCACAAAAAATCCCACCTGTTCCAAATCCTACTCGTGTCGGAGTCACCTAGTGCAG”, for which the binding signal was 8580 fluorescence intensity (a.u.).

“CCCCGTCGTGCTCCGCGGCGGCGCGCTCTTCTGGCCGCCGCGGAGTCACCTAGTGCAG”: the binding signal was 12500 fluorescence intensity (a.u.).

As to “ATTCACCGATTTCTATTTTCTGCATACATATTTCTTAAACCGGAGTCACCTAGTGCAG”, the binding signal is 9490 fluorescence intensity (a.u.).

“CTCTATGCTTATCCATGTGCATTTTTGCATAAAAGCTCCGCGGAGTCACCTAGTGCAG”: the binding signal is 8460 fluorescence intensity (a.u.).

For “AGCCACGCCCACGACCCGCAACTATAGTACGTACAACCTCCGGAGTCACCTAGTGCAG”, the binding signal was 9340 fluorescence intensity (a.u.).

As for “CAAACACGCCCTTATCCGCGCGCCTCATCGCCTCGCCAAGCGGAGTCACCTAGTGCAG”, the binding signal was 8160 fluorescence intensity (a.u.).

For “ACGAAGGGAGTGTTATATTTGTTTGGGGTTAGGACCTGAACGGAGTCACCTAGTGCAG”, the binding signal is 9070 fluorescence intensity (a.u.).

Take “TCGTTTCTGGTTGCTAGTAATAATTTTGCGCGCTTGCTTCCGGAGTCACCTAGTGCAG”: the binding signal was 8520 fluorescence intensity (a.u.).

Regarding “CTAACGTCACGCTTTCCATCCCATCTCTCTTTTTTTCCGTCGGAGTCACCTAGTGCAG”, the binding signal is 8240 fluorescence intensity (a.u.).

As for “TACCGGTGTAAATACAGTTGCATGCTGTCTTTTTCTGTTTCGGAGTCACCTAGTGCAG”, the binding signal was 10500 fluorescence intensity (a.u.).

Regarding “TTCCTTATTCTTTAACTTTATTGGGTCATTTAACTTTTTGCGGAGTCACCTAGTGCAG”, the binding signal is 8800 fluorescence intensity (a.u.).

As to “ATTATATTGATCAATGACTCTGCTACTACTGCTCCCATATCGGAGTCACCTAGTGCAG”, the binding signal is 8780 fluorescence intensity (a.u.).

On to “ATTCCGGTCATTTACGCGCTTTTAGCTTTGCCCTTCATTTCGGAGTCACCTAGTGCAG”, for which the binding signal is 17200 fluorescence intensity (a.u.).

“TCTCATCATGGTATGGGCTGGGTATTAGGCTGGCTTTAACCGGAGTCACCTAGTGCAG”: the binding signal was 12800 fluorescence intensity (a.u.).

Take “GTCTTTTGGTTGCTTGATGTCGTACTACGTAGATCCTTGTCGGAGTCACCTAGTGCAG”: the binding signal is 9510 fluorescence intensity (a.u.).

On to “TAGTTCTGACCTTTGAGCTGTACTCTTTTCTTTGTCATGGCGGAGTCACCTAGTGCAG”, for which the binding signal is 8100 fluorescence intensity (a.u.).

Take “GCCGCGTTCCATTGTTTTTCATCAAATCCTCCGCTTTTCCCGGAGTCACCTAGTGCAG”: the binding signal is 13500 fluorescence intensity (a.u.).

On to “ATCCGTCACAAATTTTCTTCCAGATGAACAAGTCACTTTCCGGAGTCACCTAGTGCAG”, for which the binding signal was 8940 fluorescence intensity (a.u.).

On to “TTCTCTTTACATGCTACATATGACCTACCAGAATTACGTACGGAGTCACCTAGTGCAG”, for which the binding signal is 8690 fluorescence intensity (a.u.).

For the sequence “GCTTCGTGTTTTTTTAAGCCGGAGGGCGTCGAGTTGACTCCGGAGTCACCTAGTGCAG”, the binding signal was 8270 fluorescence intensity (a.u.).

For “GCACCTCCTCGCGGCGTCCCACCACGCCTGCGACTTCTTCCGGAGTCACCTAGTGCAG”, the binding signal is 9950 fluorescence intensity (a.u.).

For “AGCAGATGGAGTATATCTTTAGCTAATTAAGCTATAGCTACGGAGTCACCTAGTGCAG”, the binding signal is 23000 fluorescence intensity (a.u.).

With “CGCTGTTTTTTTTTTATTTTGACGGGTAGTAGAGGCCGCGCGGAGTCACCTAGTGCAG”, the binding signal is 9990 fluorescence intensity (a.u.).

As to “TATTTATTCGCTTTTGATATCCATCACGCAGCCGCTCCGGCGGAGTCACCTAGTGCAG”, the binding signal is 10100 fluorescence intensity (a.u.).

“TGCTAAATTGCTAATACATACCTCTATGTTGTTGTGTTTTCGGAGTCACCTAGTGCAG”: the binding signal was 8580 fluorescence intensity (a.u.).

Consider “TGGCTCTGTAGGTTGGGATCTTCTACTCACTCGTTTTTCACGGAGTCACCTAGTGCAG”, for which the binding signal was 8840 fluorescence intensity (a.u.).

Take “GTCGCCGCCGCCGCCGCGTCGCCGGATGCCGATCCTCCTCCGGAGTCACCTAGTGCAG”: the binding signal was 8020 fluorescence intensity (a.u.).

Consider “CTGCGGCGAGAGGTGGGAGGCGGGGCGGTTGTACGTGTGCCGGAGTCACCTAGTGCAG”, for which the binding signal is 11000 fluorescence intensity (a.u.).

In the case of “CAAAACAGCCGCGTTTTGGCTCACTAGTCACTTGTTTGACCGGAGTCACCTAGTGCAG”, the binding signal is 9710 fluorescence intensity (a.u.).

For “CCCGCCGTGCCGCTGCCACCGGGCTCACAGACCTCTCTCCCGGAGTCACCTAGTGCAG”, the binding signal is 10100 fluorescence intensity (a.u.).

For the sequence “TCCTCCTCCTCTGCTTCCATTCTCGACTCCACCAAGTGTTCGGAGTCACCTAGTGCAG”, the binding signal is 8170 fluorescence intensity (a.u.).

Consider “GTCTATCTGGCCACATGCCGTCAGTTAGACCGGCCCCACACGGAGTCACCTAGTGCAG”, for which the binding signal is 8440 fluorescence intensity (a.u.).

For “TTTTATCAAACGTTTGACCATTCGTCTTATTCAAAAAATTCGGAGTCACCTAGTGCAG”, the binding signal was 9200 fluorescence intensity (a.u.).

Take “ATCTTATCTATAAATACGCATGCCCCTTCCTAGTCAATCCCGGAGTCACCTAGTGCAG”: the binding signal was 8170 fluorescence intensity (a.u.).

Consider “CTCCATGGCTCATCCCTTCTCTGTATATTTGGCGGTAAATCGGAGTCACCTAGTGCAG”, for which the binding signal was 8970 fluorescence intensity (a.u.).

Take “GGCCGCTGTTCCTCTAGCTAAAAGTCTTGGTAATTGTTCACGGAGTCACCTAGTGCAG”: the binding signal was 10200 fluorescence intensity (a.u.).

As to “GTCACCCTTCACCACGGCCATCTTCTCCTCGCTCGCCGTCCGGAGTCACCTAGTGCAG”, the binding signal was 11200 fluorescence intensity (a.u.).

For “ATTCCTGTGTTTTGCAATTCTCTGTTTTACAATTGTATTCCGGAGTCACCTAGTGCAG”, the binding signal is 12200 fluorescence intensity (a.u.).

For the sequence “CATTTCGTGTATCATCTCAATCGTCTCATTTCCTCTCATCCGGAGTCACCTAGTGCAG”, the binding signal was 13100 fluorescence intensity (a.u.).

“GGGGATAGGATTCTGTATGATTGATTTGATTGGGTTGGTTCGGAGTCACCTAGTGCAG”: the binding signal was 10500 fluorescence intensity (a.u.).

Consider “GCAACGTTGACTTAATTGTTTTTTTTTGTTTTATCTGTTTCGGAGTCACCTAGTGCAG”, for which the binding signal was 12400 fluorescence intensity (a.u.).

For the sequence “ACTTTATTGCAACCAATTTTTGTTTGATTTGCTCTTGATTCGGAGTCACCTAGTGCAG”, the binding signal was 9640 fluorescence intensity (a.u.).
